Sequences of proteins named here, by UniProt entry; tags and fusion partners are left off. A change or cut given only in a name is not applied to a line headed by its entry.
UniProt P50605: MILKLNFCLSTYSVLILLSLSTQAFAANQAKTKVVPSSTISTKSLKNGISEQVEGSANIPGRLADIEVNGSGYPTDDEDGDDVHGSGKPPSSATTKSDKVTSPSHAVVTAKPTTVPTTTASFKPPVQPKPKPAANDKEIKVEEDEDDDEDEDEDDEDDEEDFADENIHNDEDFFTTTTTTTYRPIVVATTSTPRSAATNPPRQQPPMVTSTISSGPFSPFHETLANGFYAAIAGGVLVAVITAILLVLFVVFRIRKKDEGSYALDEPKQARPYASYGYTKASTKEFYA

According to publication doi:10.1101/2020.11.25.395806:

Molecular target: GST fusion of the intracellular domain of SDN-1, full size (SDN-1ICD) (C. elegans) (UniProt P50605)
Assay: pull-down

binding: binds
B1: HA tagged LIN-2B (protein, UniProt P54936-2 1-620)
chain: MSSAATPPPMEHTSSEDSTTAPLQTPSSSSCLDVTVAVGTSVSYLKASPLVSSPTSLVVDITESSSTLLYDKIKALPCEPVVTEVDTSTLRKETLNQIDGLLGPSPEALELRQLLNSPHLASCVQALDVVVCEIRDPKNEASGSGDKEGNCVSSDPAPAYLNGGVLPLGAQRAGTSFEHFNQSAVHTSYDEEEEELYDCMSRLRLVQFQKDTQEPMGITLKVNEDGRCFVARIMHGGMIHRQATLHVGDEIREINGMSVANRSVESLQEMLRDARGQVTFKIIPSYRSAPPACEIFVRAQFDYEPSQDDLIPCPQAGIPFKTGDILQVISKDDHNWWQARFVSSFPSIGNSSNAQRSNQQQVAGLIPSPELQEWRTACLAMERSKNTCNTHCMWFNKKKKYYTTKYLQKHSALFDQLDLVTYEEVMRLSQYRRKTLVLLGAHGVGRRHIKNTLIHRHPNRFAYPIPHTTRPPRKDEVDGKHYYFVTNEQMMADIQNNEYLEYGTHEESMYGTKLETIRNIHKSGKIAILDVEPQALKVLRTAEYSPFVVFIAAPNLQGMQDPDGSLEKLLNESDVLRQAFGHLFDFIITNSDIDDTIAQLERLVEKLPAYPQWLPVTWVY

No constants are given. Whether binding was seen depends on the method and setting. Binding seen in cells or lysates may run through a third protein. A result given as binding can be weak or reduced; the word gives no strength. Where a sequence is shown, tags or fusion partners need not be part of it.
